Measurements published in paper PMC4777826, “Crystal Structure of the CTP1L Endolysin Reveals How Its Activity Is Regulated by a Secondary Translation Product*^([image sbox.jpg])” (The Journal of Biological Chemistry, 2015).

Target: T1, CD27L endolysin, full-length (wild type) (bacteriophage (targets Clostridium difficile)) (UniProt B6SBV8)
T1 sequence: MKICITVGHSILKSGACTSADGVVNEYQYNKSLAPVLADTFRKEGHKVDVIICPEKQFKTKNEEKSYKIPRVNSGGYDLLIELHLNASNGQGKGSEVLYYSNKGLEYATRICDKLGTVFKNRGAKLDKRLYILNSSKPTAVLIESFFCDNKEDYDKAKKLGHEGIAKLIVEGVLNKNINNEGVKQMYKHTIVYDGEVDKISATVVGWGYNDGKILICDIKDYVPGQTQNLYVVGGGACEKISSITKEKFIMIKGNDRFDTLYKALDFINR
Assay: native MS; nano-ESI of each purified sample by itself (wild-type gene products, CBDHis, RBSKO mutants), 150 mM ammonium acetate pH 7.4; both purified

binding: binds
Substance: truncated C-terminal domain (CBD) of CD27L (domain or fragment)

These are yes or no findings as the source states them, for the method shown. Binding calls can cover weak binding; strength is not graded here.
